This passage reports binding results from article doi:10.1101/2022.07.25.501445.

Chains of the proteins cited; added tags and fusions are not shown.
UniProt Q9BXC0: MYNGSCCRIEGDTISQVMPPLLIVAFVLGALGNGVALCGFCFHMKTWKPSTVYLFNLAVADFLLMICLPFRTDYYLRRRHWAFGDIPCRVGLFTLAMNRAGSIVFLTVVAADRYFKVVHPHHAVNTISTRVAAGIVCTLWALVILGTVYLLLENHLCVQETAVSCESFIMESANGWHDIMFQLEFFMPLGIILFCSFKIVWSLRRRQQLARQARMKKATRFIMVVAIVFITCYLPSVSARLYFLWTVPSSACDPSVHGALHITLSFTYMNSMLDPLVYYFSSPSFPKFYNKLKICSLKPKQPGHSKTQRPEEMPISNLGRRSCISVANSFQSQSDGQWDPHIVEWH
UniProt Q9C086: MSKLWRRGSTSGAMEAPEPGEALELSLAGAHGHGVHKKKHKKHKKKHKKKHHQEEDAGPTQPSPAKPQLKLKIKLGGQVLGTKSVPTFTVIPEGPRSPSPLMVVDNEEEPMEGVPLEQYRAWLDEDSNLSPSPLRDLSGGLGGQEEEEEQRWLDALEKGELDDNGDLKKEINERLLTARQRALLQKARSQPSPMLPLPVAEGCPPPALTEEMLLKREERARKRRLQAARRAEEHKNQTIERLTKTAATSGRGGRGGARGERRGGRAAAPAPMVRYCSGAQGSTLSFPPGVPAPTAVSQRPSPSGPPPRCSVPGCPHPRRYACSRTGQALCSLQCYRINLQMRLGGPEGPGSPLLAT
UniProt Q96L73: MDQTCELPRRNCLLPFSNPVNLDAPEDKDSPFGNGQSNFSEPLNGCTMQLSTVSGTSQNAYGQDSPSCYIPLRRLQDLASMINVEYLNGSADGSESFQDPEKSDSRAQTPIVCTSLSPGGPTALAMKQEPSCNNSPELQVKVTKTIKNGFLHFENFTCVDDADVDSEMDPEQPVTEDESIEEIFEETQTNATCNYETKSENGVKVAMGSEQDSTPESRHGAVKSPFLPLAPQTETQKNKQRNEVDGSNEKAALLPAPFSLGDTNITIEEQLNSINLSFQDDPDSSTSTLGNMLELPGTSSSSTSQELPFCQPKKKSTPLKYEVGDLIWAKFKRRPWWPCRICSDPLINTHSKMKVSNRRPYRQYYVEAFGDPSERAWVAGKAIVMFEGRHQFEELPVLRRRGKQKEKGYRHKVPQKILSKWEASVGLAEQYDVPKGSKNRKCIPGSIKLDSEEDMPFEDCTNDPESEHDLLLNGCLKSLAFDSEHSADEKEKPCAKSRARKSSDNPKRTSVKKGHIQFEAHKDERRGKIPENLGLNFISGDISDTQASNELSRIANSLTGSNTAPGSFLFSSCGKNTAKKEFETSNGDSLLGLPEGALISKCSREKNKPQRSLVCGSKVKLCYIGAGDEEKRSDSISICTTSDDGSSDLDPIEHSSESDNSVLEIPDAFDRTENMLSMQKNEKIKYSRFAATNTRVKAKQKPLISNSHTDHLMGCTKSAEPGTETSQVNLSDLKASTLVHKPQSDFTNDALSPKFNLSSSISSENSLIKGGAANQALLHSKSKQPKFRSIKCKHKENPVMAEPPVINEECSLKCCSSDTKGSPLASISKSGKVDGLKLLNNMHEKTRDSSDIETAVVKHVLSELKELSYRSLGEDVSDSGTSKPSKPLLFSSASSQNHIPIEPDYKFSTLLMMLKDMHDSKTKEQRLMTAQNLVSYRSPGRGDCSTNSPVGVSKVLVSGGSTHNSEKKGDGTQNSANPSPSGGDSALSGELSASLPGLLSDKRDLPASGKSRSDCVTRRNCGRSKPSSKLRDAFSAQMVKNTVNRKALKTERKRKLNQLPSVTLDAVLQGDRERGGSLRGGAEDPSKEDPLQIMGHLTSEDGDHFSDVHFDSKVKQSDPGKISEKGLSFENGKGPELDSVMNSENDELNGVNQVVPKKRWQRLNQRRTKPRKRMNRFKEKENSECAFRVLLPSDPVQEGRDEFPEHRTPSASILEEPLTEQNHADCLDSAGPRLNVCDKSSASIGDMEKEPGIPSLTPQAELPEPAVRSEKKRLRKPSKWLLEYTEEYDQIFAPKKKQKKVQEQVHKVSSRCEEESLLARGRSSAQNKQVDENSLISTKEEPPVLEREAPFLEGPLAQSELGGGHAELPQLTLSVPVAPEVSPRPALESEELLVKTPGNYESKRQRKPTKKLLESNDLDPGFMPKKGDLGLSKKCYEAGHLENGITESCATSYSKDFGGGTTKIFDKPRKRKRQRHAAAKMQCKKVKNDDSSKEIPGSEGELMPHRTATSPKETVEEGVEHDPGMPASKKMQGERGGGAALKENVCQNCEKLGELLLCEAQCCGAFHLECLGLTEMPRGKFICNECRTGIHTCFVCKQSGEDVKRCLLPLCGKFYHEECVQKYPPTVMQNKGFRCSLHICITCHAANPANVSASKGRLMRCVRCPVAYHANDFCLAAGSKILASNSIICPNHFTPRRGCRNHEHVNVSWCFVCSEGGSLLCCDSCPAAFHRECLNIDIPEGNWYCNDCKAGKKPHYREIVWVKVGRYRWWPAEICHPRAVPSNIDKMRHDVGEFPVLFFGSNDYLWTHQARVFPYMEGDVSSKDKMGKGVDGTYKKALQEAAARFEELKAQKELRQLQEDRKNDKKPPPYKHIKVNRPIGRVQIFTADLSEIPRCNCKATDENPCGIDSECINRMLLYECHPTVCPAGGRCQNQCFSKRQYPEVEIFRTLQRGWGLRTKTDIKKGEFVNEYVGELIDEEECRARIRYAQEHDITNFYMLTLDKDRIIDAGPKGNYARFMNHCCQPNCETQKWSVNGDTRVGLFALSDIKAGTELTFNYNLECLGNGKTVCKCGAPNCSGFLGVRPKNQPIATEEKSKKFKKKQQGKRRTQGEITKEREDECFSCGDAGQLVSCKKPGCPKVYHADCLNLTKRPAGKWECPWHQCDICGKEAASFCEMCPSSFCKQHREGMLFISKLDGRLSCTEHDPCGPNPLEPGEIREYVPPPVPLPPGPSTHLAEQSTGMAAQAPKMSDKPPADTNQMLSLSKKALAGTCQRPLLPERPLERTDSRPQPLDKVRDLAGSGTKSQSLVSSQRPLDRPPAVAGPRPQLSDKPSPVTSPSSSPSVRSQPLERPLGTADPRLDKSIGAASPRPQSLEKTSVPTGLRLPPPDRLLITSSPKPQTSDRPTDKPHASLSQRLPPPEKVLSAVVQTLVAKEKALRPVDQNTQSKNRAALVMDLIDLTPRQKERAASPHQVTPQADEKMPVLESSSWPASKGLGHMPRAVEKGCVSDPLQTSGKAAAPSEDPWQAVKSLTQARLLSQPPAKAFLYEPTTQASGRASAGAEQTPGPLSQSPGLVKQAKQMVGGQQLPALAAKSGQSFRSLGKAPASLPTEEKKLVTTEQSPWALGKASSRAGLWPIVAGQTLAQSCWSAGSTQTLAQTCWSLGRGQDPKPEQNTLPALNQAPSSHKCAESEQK
UniProt O60264: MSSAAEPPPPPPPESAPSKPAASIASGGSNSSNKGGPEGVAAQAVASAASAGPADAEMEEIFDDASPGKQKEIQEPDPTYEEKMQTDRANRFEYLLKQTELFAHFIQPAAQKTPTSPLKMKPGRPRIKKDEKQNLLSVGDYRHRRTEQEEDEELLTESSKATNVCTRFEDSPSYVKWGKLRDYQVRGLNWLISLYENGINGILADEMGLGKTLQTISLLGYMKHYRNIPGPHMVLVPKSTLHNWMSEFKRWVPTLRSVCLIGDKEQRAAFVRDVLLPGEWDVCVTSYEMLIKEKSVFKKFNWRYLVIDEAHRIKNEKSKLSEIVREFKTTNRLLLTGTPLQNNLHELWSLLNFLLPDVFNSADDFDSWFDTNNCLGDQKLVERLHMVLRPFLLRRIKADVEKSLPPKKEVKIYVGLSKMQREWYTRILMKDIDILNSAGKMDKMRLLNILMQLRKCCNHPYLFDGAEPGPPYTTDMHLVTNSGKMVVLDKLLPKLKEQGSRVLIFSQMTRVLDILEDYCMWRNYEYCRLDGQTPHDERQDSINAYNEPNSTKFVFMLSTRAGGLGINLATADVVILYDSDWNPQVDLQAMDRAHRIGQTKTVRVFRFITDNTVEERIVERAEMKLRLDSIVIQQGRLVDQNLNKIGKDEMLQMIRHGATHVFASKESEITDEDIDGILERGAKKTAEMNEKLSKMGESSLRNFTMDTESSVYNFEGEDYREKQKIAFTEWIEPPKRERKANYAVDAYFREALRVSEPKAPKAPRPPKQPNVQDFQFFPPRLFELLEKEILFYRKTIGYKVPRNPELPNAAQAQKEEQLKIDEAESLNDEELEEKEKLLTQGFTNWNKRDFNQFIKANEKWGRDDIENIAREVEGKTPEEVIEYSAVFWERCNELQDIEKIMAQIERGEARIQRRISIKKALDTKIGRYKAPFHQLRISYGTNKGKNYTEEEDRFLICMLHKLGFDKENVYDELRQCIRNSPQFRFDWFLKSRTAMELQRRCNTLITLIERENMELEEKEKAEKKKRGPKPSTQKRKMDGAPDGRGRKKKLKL
UniProt Q92922: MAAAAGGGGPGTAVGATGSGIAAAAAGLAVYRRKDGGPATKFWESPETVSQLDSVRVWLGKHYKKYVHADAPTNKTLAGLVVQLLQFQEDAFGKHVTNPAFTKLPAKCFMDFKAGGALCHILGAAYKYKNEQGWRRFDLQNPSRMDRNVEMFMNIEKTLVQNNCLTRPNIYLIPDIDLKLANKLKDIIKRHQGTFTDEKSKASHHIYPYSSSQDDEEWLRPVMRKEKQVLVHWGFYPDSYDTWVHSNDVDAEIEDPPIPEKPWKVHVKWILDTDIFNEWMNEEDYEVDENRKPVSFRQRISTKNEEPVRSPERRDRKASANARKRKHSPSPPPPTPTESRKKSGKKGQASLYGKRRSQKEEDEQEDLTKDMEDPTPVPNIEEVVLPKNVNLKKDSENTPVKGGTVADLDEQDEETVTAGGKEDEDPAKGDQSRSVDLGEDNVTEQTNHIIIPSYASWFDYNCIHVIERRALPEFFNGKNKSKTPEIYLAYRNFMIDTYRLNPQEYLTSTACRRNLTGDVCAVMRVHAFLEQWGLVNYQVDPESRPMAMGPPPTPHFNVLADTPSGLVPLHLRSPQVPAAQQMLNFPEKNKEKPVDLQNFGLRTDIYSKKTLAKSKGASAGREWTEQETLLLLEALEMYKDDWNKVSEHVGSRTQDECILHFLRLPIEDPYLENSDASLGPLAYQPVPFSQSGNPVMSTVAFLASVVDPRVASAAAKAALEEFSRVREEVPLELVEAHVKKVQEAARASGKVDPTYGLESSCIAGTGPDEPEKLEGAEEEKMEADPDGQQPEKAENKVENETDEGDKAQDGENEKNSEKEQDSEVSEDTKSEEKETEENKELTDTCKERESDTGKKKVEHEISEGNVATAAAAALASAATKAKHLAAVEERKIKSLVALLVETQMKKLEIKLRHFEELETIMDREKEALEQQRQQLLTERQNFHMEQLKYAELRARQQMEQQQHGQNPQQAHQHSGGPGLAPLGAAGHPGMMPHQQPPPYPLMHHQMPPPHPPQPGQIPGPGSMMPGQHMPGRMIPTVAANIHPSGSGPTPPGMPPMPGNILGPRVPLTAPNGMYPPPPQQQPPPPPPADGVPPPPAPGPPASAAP

No constants are given. Whether binding was seen depends on the method and setting. Binding seen in cells or lysates may run through a third protein. A yes stands for co-enrichment or nearness to the bait. Other partners may have been found.

For the experiment, the target named is HCAR1-BioID2-HA fusion protein (hydroxycarboxylic acid receptor 1 in the MCS-13X Linker-BioID2-HA vector) (human) (UniProt Q9BXC0). Nature of the experiment: proximity labelling.

Take INO80b (from UniProt Q9C086 1-356): the binding result is “binds”. As for “NSD1 (from UniProt Q96L73 1-2696) (enzyme)”, the binding result is given as “binds”. For SMARCA5 (from UniProt O60264 1-1052) the value was “binds”; for SMARCC1 (from UniProt Q92922 1-1105), “binds”.
